The labels stand for the following.
B1: MAPK3 (protein, UniProt Q39023 1-370)
chain: MNTGGGQYTDFPAVETHGGQFISYDIFGSLFEITSKYRPPIIPIGRGAYGIVCSVLDTETNELVAMKKIANAFDNHMDAKRTLREIKLLRHLDHENIIAIRDVVPPPLRRQFSDVYISTELMDTDLHQIIRSNQSLSEEHCQYFLYQLLRGLKYIHSANIIHRDLKPSNLLLNANCDLKICDFGLARPTSENDFMTEYVVTRWYRAPELLLNSSDYTAAIDVWSVGCIFMELMNRKPLFPGKDHVHQMRLLTELLGTPTESDLGFTHNEDAKRYIRQLPNFPRQPLAKLFSHVNPMAIDLVDRMLTFDPNRRITVEQALNHQYLAKLHDPNDEPICQKPFSFEFEQQPLDEEQIKEMIYQEAIALNPTYG
B2: MAPKK5 (protein, UniProt Q8RXG3 1-348)
chain: MKPIQSPSGVASPMKNRLRKRPDLSLPLPHRDVALAVPLPLPPPSSSSSAPASSSAISTNISAAKSLSELERVNRIGSGAGGTVYKVIHTPTSRPFALKVIYGNHEDTVRRQICREIEILRSVDHPNVVKCHDMFDHNGEIQVLLEFMDQGSLEGAHIWQEQELADLSRQILSGLAYLHRRHIVHRDIKPSNLLINSAKNVKIADFGVSRILAQTMDPCNSSVGTIAYMSPERINTDLNHGRYDGYAGDVWSLGVSILEFYLGRFPFAVSRQGDWASLMCAICMSQPPEAPATASQEFRHFVSCCLQSDPPKRWSAQQLLQHPFILKATGGPNLRQMLPPPRPLPSAS

Protein sequences, listed by entry. Tags and fused reporters are not part of them.
UniProt Q39026: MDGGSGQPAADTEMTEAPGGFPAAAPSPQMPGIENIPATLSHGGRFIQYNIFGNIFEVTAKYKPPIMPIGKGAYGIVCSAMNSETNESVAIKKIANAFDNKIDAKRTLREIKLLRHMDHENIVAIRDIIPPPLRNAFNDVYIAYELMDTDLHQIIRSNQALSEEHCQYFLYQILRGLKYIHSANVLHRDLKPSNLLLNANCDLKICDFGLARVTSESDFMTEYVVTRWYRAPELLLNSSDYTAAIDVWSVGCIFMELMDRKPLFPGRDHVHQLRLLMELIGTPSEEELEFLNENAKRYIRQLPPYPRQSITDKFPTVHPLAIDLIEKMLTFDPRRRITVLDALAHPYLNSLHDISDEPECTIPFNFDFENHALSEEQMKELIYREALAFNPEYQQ

Results are given in words; binding and its absence hold for the method and conditions named. In cells and extracts the contact can be indirect. A yes stands for co-enrichment or nearness to the bait. Other partners may have been found. Where a sequence is shown, tags or fusion partners need not be part of it.

This assay deals with T1, Flag-tagged RTFL18 (transgenic lines used for IP-MS) (Arabidopsis) (UniProt Q6X5V0).
T1 sequence: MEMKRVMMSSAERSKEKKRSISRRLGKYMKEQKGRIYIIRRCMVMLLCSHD
Description: affinity purification with mass spectrometry; IP-MS using Flag-tagged RTFL18 transgenic Arabidopsis lines.
As to MAPK6 (from UniProt Q39026 1-395), the binding result is reported as “binds”.

B1: the binding entry is “binds”.

Consider B2, for which the binding result was “binds”.

These data come from paper PMC10613268, “Shade-induced RTFL/DVL peptides negatively regulate the shade response by directly interacting with BSKs in Arabidopsis” (Nature Communications, 2023).
